Measurements published in patent publication US11661437B2, “Steroid derivative regulators, method for preparing the same, and uses thereof” (priority 2018, dated 2023).
At least one compound was matched to its structure with a doubt left.

Test system: GABA-A receptor
Assay: 35S-TBPS binding assay on rat cerebral cortex cell membrane
Parameters: species or system Sprague-Dawley rat
Conditions: 2 nM 35S-TBPS, GABA added, read-out: 35S-TBPS bindng test, IC50 on inhibiting the TBPS binding activity
Description: 1.2.1 Extraction of Cerebral Cortex Cell Membrane:
1. The cerebral cortex of male Sprague-Dawley rat was isolated.
2. A pre-chilled 0.32 M sucrose solution (one tablet of protease inhibitor was added per 100 ml) was added to the cerebral cortex (the volume of sucrose solution was 10 times the volume of the cerebral cortex). The mixture was crushed with a 50 ml glass tissue homogenizer in batches and mixed well.
3. The mixture was centrifuged at 1500 g, 4° C. for 10 minutes, and the supernatant was collected.
4. The mixture was centrifuged at 20000 g, 4° C. for 30 minutes, and the supernatant was discarded.
5. […]
9. The protein concentration was measured by the bicinchoninic acid (BCA) method. […]
11. 40 μL of scintillation solution was added to each well, and the CPM value was read with TopCount. […]
In the experiment, the CPM (counts per minute) value was read with TopCount. According to the readings of the High control (DMSO) and the Low control (10 μM of the positive compound) experimental groups, the % inhibition was calculated based on the following formula: % Inhibition=100×(CPMHigh control−CPMSample)/(CPMHigh control−CPMLow control)
The IC50 of the compound was calculated according to the following 4-parameter nonlinear logic formula: Y=Bottom+(Top−Bottom)/(1+10^((Log IC50−X)*Hill Slope)), […]

| SMILES | IC50 |
| --- | --- |
| CC(=O)[C@H]1CC[C@H]2[C@@H]3CC[C@@H]4C[C@](C)(O)CC[C@]4(F)[C@H]3CC[C@]12C [Example 1, 1-((3R,5R,8S,10R,13S,14S,17S)-10-Fluoro-3-hydroxy-3,13-dimethylhexadecahydro-1H-cyclopenta[a]phenanthren-17-yl)ethan-1-one] | 42.4 nM |
| C[C@@]1(O)CC[C@@]2(F)[C@H](CC[C@H]3[C@@H]4CC[C@H](C(=O)COc5ccc6ccc[n+]([O-])c6c5)[C@@]4(C)CC[C@@H]32)C1 [Example 70, 7-(2-((3R,5R,8S,9S,10R,13S,14S,17S)-10-Fluoro-3-hydroxy-3,13-dimethylhexadecahydro-1H-cyclopenta[a]phenanthren-17-yl)-2-oxoethoxy)quinolone 1-oxide] | 7.6 nM |
